Data: article PMC9861623, “New Ferulic Acid and Amino Acid Derivatives with Increased Cosmeceutical and Pharmaceutical Potential” (Pharmaceutics, 2022)
Where “and” joins values, the source holds several entries; their conditions need not be identical. Identical values can stand only once.

Assay: Total polyphenols content (Folin–Ciocalteu) of acceptor fluid after 24 h permeation
Parameters: species or system pig
Settings: after 24 h penetration

| Compound | Total Polyphenol in the acceptor fluid (emulsion) | Total Polyphenol in the acceptor fluid (ethanol solution) | Total Polyphenol in the acceptor fluid (hydrogel) |
| --- | --- | --- | --- |
| CCCOC(=O)[C@@H]1CCCN1.COc1cc(/C=C/C(=O)O)ccc1O [PPr[FA], L-proline propyl ester ferulate] | 0.061 ± 0.002 mmol GA dm^−3 and 0.061 ± 0.002 b mmol GA dm^−3 | 0.122 ± 0.002 mmol GA dm^−3 and 0.125 ± 0.001 c mmol GA dm^−3 | 0.082 ± 0.001 mmol GA dm^−3 and 0.082 ± 0.001 c mmol GA dm^−3 |
| CCCOC(=O)CN.COc1cc(/C=C/C(=O)O)ccc1O [GPr[FA], glycine propyl ester ferulate] | 0.051 ± 0.001 ab mmol GA dm^−3 | 0.115 ± 0.001 b mmol GA dm^−3 | 0.064 ± 0.001 b mmol GA dm^−3 |
| CCCOC(=O)[C@@H](N)CC(C)C.COc1cc(/C=C/C(=O)O)ccc1O [LPr[FA], L-leucine propyl ester ferulate] | 0.045 ± 0.004 a mmol GA dm^−3 | 0.125 ± 0.002 mmol GA dm^−3 and 0.122 ± 0.002 c mmol GA dm^−3 | 0.057 ± 0.002 a mmol GA dm^−3 |
| COc1cc(/C=C/C(=O)O)ccc1O [Ferulic acid] | 0.047 ± 0.006 a mmol GA dm^−3 | 0.097 ± 0.002 a mmol GA dm^−3 | 0.059 ± 0.003 a mmol GA dm^−3 |
